Test results as given in patent publication US6824972 (BAYLOR COLLEGE OF MEDICINE, dated 2004).
No constants are given. Whether binding was seen depends on the method and setting. Some results given as binding are weak or reduced against the parent protein; the word gives no strength.

Target: T1, NF-κB p50 subunit (human), P19838
T1 chain: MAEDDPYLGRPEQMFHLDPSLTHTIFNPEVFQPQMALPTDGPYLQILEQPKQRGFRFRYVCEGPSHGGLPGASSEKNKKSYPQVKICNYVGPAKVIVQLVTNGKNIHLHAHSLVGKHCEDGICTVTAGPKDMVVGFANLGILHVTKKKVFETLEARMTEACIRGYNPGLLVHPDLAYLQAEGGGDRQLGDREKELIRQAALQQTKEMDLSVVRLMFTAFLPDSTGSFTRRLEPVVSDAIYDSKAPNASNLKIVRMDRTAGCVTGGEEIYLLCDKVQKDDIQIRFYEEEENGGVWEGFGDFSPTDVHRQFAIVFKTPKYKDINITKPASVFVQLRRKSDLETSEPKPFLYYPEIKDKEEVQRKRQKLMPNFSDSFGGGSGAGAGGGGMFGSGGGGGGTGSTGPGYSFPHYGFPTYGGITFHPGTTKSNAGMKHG
Experiment: EMSA with supershift, nuclear extracts of TNF-stimulated normal and patient G embryonic fibroblasts, 32P-labelled MHC-1 probe; called the p50/p50 complex in the same paragraph
Conditions: remark: other sources report otherwise

- binding: binds
B1: NF-κB p50 subunit (other, human, UniProt P19838 1-433, looked up)
chain: T1 chain
